According to JP2022142155A:
These are yes or no findings as the source states them, for the method shown. Some results given as binding are weak or reduced against the parent protein; the word gives no strength.

Amino acid sequences for entries named in this document (tags omitted). Residues count along the entry.
UniProt P02769, residues 25-607: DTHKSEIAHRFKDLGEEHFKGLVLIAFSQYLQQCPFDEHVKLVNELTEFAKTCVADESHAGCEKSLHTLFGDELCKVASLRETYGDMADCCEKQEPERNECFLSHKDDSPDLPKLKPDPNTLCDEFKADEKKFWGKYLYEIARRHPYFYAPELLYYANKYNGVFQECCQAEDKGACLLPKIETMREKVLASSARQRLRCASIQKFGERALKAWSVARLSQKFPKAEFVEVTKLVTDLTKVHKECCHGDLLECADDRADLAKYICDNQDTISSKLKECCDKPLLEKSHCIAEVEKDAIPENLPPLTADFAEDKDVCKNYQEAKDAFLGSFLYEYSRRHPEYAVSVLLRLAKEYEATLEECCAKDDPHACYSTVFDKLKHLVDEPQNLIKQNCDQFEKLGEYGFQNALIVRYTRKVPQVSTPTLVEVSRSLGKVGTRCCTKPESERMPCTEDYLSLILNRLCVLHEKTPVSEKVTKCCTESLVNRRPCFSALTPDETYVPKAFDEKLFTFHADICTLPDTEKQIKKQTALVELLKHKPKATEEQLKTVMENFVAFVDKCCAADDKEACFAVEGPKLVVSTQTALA

B1: 配列番号:38により表されるアミノ酸配列を含む抗HSA抗体 (VHH, not shown: small tags and cut ends)
VHH: QVQLVESGGGLVQTGGSLRLSCAASGRIVTVAAMGWFRQAPGKEREFVASISWSGRSRSYADSVKGRFTISRDNAKNTAYLQMSSLKPEDTGVYYCALGGNSYSSDYARYDYWGQGTQVTVSS
B2: 配列番号:37により表されるアミノ酸配列を含む抗HSA抗体 (VHH, not shown: small tags and cut ends)
VHH: EVQLVESGGGLVHPGGSLRLSCVASGSDVSSDTMGWFRRAPGKQRELVAAIAWGGSTHYAESVKGRFTISRDNAKNTVYLQLSNLKPEDTAVYLCNTRNYWGQGTQVTVSS
B3: 配列番号:40により表されるアミノ酸配列を含む抗HSA抗体 (VHH, not shown: small tags and cut ends)
VHH: QVQLVESGGGLVQAGKSLRLSCTASGSIPSIGVTGWHRQAPGKQRELVATISQGGHINYFESVKGRFTISRDNAKNTVYLQMNSLKPEDTGVYYCNAFWLPLRLNDYWGQGTQVTVSS

biological target: ウシ血清アルブミン (bovine) (UniProt P02769); experiment: ELISA, albumin coated, anti-His-HRP detection, A450

binding, binds:
B1
B2
B3
